Earlier results as cited in patent US9114165B2 (Spain Pharma S.A., priority 2010, dated 2015).
Converted amounts (≈) assume the structure as drawn. Like-named read-outs stand apart in the source and are kept apart here.

Details: in water

CC(C)Cc1ccc(C(C)C(=O)O)cc1 (centres unmarked) [Ibuprofen, 2-(4-Isobutylphenyl)-propionic acid]
solubility (at acidic pHs): 78 micrograms/mL | solubility (at alkaline pHs): 291 mg/mL (≈ 1410 mM)
